From the supplement of paper PMC10849652
Some of the results follow.

Chains of the proteins cited; added tags and fusions are not shown. Lines headed by an entry give the natural chain unless they say otherwise; changes in a name come on top.
UniProt Q9NV79: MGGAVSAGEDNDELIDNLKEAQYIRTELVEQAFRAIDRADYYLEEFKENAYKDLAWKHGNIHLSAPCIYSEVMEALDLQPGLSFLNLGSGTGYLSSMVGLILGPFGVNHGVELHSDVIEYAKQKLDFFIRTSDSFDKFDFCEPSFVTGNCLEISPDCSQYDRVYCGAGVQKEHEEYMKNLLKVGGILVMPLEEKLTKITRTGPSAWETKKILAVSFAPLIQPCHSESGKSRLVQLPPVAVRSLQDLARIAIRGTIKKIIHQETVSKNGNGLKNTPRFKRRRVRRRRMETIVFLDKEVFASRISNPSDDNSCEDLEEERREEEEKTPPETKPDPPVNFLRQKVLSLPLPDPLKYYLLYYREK
UniProt O00623: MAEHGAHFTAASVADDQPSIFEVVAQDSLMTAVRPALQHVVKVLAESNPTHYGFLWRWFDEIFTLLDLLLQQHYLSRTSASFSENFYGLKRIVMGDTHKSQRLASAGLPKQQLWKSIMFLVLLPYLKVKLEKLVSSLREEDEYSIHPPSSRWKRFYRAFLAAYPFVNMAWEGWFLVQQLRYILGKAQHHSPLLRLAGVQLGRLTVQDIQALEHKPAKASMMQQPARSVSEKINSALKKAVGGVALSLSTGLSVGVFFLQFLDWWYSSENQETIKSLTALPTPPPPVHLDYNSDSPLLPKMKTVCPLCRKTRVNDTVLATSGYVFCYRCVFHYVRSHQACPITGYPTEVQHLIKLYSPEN
UniProt P27815: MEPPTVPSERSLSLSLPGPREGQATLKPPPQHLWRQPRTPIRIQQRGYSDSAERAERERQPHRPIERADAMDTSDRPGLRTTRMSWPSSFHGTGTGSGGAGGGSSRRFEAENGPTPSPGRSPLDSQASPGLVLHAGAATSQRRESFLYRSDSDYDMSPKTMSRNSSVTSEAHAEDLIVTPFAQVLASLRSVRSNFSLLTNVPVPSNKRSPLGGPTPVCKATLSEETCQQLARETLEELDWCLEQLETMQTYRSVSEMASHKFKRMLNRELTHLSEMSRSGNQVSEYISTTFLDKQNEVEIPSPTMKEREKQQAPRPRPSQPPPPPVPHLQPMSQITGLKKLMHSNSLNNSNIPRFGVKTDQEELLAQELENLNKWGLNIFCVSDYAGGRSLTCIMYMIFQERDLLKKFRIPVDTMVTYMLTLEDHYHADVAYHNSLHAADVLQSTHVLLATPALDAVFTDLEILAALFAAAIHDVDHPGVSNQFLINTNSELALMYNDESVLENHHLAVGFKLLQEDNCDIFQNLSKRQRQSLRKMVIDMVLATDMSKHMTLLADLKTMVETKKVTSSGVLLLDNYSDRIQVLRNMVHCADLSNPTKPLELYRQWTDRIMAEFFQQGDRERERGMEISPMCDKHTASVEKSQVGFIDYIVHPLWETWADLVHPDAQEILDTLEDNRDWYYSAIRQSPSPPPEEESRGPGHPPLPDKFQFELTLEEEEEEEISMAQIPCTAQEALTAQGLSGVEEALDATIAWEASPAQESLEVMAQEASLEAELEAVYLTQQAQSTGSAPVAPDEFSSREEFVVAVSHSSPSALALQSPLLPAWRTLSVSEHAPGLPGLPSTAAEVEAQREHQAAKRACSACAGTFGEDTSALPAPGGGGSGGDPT
UniProt Q6P996: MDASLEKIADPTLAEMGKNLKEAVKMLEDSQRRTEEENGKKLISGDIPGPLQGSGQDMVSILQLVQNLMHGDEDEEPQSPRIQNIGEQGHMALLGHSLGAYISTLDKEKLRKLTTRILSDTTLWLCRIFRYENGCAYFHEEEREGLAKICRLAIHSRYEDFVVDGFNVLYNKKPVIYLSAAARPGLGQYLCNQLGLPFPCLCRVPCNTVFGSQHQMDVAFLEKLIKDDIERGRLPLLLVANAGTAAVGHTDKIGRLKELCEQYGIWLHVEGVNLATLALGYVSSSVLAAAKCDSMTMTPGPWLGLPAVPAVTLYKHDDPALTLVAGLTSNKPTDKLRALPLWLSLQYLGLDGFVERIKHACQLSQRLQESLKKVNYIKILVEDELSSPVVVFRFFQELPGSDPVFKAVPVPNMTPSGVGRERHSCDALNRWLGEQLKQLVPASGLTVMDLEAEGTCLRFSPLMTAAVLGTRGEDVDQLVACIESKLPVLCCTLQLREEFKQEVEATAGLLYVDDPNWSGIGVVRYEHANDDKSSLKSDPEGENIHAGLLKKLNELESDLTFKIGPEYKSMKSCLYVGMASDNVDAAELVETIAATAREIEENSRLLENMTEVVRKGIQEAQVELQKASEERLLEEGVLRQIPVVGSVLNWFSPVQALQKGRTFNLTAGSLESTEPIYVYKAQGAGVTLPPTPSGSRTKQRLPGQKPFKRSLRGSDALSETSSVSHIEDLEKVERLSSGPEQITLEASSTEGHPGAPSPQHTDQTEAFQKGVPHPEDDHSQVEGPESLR
UniProt Q9H0J9: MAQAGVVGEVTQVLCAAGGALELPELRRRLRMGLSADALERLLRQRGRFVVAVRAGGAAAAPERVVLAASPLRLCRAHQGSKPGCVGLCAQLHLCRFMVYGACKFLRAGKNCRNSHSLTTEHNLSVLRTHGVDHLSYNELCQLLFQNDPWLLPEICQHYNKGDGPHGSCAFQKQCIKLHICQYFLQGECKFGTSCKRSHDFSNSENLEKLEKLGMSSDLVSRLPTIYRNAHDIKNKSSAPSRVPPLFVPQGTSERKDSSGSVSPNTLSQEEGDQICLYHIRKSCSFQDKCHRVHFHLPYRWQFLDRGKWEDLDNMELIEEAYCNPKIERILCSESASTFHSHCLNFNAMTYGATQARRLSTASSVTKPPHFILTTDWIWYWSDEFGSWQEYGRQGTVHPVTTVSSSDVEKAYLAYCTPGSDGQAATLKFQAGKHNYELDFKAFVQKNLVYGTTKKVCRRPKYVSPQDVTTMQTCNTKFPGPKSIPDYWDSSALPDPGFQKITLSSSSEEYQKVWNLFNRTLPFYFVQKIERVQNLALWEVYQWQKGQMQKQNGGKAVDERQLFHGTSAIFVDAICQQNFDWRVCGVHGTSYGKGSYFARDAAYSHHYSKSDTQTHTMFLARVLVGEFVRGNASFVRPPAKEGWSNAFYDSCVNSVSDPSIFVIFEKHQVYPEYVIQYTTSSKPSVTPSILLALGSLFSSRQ
UniProt Q96MG8: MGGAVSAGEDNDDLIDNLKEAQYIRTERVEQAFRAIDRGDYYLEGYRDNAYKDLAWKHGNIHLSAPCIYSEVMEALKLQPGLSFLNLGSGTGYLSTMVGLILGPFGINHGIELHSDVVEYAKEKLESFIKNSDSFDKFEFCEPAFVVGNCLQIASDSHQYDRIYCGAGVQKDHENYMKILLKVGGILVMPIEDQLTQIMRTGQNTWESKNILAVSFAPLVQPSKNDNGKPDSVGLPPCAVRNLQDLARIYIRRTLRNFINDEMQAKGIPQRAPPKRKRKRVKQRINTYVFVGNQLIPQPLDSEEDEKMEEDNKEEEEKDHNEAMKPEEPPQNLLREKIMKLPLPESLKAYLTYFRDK
UniProt P11177, whole entry, looked up: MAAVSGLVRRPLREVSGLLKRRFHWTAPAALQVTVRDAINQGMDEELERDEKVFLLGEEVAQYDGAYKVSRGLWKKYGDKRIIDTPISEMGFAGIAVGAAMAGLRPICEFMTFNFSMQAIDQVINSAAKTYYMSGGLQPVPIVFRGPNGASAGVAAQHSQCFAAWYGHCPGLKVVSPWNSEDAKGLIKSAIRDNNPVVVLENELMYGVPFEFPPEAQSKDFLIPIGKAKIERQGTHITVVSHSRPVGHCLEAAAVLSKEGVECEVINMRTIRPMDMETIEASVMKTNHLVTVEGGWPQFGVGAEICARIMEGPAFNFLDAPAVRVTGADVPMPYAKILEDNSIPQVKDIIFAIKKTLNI
UniProt Q86U86, whole entry, looked up: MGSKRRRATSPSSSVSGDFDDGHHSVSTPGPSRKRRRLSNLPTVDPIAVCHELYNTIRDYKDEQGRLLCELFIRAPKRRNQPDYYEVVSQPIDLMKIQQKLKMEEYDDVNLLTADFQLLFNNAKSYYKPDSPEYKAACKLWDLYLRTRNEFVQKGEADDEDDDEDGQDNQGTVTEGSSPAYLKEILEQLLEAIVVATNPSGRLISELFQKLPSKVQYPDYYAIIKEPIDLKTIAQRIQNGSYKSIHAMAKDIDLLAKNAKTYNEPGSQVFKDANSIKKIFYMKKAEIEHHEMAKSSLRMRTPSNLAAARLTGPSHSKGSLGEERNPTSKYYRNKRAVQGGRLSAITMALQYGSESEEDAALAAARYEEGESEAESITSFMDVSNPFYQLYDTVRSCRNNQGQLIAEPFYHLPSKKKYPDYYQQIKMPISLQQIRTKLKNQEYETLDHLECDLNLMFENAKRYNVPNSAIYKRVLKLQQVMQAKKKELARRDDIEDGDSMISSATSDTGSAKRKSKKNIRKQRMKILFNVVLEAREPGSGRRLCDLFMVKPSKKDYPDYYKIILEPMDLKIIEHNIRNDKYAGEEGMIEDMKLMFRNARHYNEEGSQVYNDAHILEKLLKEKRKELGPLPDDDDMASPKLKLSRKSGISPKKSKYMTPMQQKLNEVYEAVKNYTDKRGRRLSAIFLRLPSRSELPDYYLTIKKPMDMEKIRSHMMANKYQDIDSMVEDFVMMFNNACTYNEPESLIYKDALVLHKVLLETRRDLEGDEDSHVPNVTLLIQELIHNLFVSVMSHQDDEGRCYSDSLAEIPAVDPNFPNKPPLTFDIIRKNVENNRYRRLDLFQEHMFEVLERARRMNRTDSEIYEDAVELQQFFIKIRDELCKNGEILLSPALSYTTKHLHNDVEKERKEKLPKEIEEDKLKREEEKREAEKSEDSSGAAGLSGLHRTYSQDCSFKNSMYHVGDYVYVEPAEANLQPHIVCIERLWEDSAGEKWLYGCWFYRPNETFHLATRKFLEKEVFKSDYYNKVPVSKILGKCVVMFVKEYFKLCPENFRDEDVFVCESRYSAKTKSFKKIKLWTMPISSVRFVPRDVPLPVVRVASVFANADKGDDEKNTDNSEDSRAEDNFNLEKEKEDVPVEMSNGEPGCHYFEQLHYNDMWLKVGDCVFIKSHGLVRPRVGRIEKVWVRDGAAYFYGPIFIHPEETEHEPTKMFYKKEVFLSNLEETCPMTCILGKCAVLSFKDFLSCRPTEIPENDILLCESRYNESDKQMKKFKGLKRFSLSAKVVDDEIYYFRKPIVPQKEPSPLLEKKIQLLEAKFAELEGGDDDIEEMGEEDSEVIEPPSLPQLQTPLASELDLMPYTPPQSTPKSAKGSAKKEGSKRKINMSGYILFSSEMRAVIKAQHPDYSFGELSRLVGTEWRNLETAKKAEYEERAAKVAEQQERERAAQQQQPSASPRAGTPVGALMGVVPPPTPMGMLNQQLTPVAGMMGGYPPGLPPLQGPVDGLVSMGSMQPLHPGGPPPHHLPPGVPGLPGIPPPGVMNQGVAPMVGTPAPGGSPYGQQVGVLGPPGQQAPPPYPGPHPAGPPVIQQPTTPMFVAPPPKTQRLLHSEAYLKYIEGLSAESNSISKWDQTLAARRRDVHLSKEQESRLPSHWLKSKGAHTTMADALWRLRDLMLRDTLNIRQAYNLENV
UniProt Q9UBM1: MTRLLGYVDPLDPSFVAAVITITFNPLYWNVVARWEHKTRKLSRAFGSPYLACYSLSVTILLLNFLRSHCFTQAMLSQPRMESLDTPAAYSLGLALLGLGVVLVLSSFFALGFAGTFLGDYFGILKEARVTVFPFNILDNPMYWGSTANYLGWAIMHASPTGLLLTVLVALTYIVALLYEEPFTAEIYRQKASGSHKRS
UniProt Q9Y5K3: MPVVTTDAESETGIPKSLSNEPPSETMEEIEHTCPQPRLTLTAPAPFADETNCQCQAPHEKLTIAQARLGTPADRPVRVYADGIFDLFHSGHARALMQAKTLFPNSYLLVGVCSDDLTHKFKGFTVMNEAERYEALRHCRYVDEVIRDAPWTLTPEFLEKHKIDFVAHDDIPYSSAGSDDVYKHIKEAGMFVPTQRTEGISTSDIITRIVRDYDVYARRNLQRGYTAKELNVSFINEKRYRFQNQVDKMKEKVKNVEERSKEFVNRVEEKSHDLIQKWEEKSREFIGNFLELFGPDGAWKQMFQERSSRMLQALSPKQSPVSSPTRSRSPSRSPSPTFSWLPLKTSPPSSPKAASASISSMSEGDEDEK
UniProt Q5JVF3: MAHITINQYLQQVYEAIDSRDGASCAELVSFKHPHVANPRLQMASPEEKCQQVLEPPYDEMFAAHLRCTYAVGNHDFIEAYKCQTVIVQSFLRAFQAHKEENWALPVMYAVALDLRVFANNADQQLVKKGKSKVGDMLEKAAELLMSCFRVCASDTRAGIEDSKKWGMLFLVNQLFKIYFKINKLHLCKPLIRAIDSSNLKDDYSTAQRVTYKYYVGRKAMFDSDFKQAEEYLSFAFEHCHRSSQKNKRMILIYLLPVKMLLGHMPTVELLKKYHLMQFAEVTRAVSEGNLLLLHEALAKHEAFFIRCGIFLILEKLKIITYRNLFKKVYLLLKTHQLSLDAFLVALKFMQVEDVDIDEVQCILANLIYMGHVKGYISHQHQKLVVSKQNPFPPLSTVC

Key:
Experiment in all cases: log2 fold change, soluble protein after heating vs DMSO (PISA); higher = thermal stabilisation; K562 lysate, 10 uM; active = over 0.2 and 3.5 SD of the protein, either way, in both replicates (recomputed)
[1] = compound: CC1=C2C(=CC=C1)N=C(N(C2=O)C3=CC=CC=C3C)CN4C=NC5=C(N=CN=C54)N
Method in brief: (§1)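 Log-two fold change in thermal stability relative to solvent controls is reported from duplicates. For each sample, crude K562 extract from dounce-homogenised pellets in PBS pH 7.4 with 1 mM MgCl2, at 1 mg/mL protein, was treated with 10 μM compound for 30 min. Aliquots heated for 3 min across 48°C-58°C were pooled, brought to 0.5% NP-40 at 4°C and cleared at 21,000xg for 90 min. The supernatant was quantified by TMTpro 16plex LC-MS/MS with channel sums equalised.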

[2] = compound: c1ccc([C@@H]2C[C@H]2NC2CCNCC2)cc1
Method in brief: as §1

[3] = compound: C1=CC=C(C=C1)[C@H](COC2=CC3=C(C=C2)NC(=O)N3)NC(=O)C4=CC=CN(C4=O)CC5=CC(=C(C=C5)F)F
Method in brief: as §1

[4] = compound: CC1=C(SC2=C1C(=N[C@H](C3=NN=C(N32)C)CC(=O)N)C4=CC=C(C=C4)Cl)C
Method in brief: as §1

[5] = compound: Cc1sc2c(c1C)C(c1ccc(Cl)cc1)=N[C@@H](CC(=O)OC(C)(C)C)c1nnc(C)n1-2
Method in brief: as §1

Measured: log2 fold change

PER2 (UniProt O15055)
inactive: [1] -0.108 | [2] 0.171

PGD (UniProt P52209)
inactive: [3] -0.005 | [4] 0.009 | [1] 0.019 | [5] -0.005 | [2] 0.05

PCMTD2 (UniProt Q9NV79)
inactive: [1] 0.204

PEX12 (UniProt O00623)
inactive: [2] -0.212

PDE4A (UniProt P27815)
inactive: [3] -0.146 | [4] -0.035 | [1] 0.078 | [5] -0.06 | [2] -0.084

PFN1 (UniProt I3L3D5)
inactive: [3] 0.007 | [4] 0.065 | [2] 0.164

PDPK1 (UniProt O15530)
inactive: [4] 0 | [1] -0.035 | [5] 0.022 | [2] -0.069

PDXDC1 (UniProt Q6P996)
inactive: [3] 0.025 | [4] 0.022 | [1] 0.01 | [5] 0.02 | [2] 0.014

PFN3 (UniProt P60673)
inactive: [1] 0.072 | [2] -0.004

PEX1 (UniProt O43933)
inactive: [1] 0.055

Looked up one by one from the entries so far (2):
PDXDC1 (UniProt Q6P996)
inactive: [3] 0.025 | [4] 0.022 | [1] 0.01 | [5] 0.02 | [2] 0.014

PEX1 (UniProt O43933)
inactive: [1] 0.055

Next results follow.

PARP12 (UniProt Q9H0J9)
inactive: [3] -0.071 | [4] 0.056 | [5] 0.023

PCMTD1 (UniProt Q96MG8)
inactive: [1] -0.067

PDHB (UniProt P11177)
inactive: [3] 0 | [4] 0.024 | [1] -0.011 | [5] 0.026 | [2] 0.063

PBRM1 (UniProt Q86U86)
inactive: [3] -0.034 | [4] -0.046 | [5] 0.089 | [2] 0.25

PEMT isoform 2 (UniProt Q9UBM1)
inactive: [1] 0.087 | [2] 0.089

PDCD6 isoform 2 (UniProt O75340)
inactive: [2] 0.073

PAXX (UniProt Q9BUH6)
inactive: [3] 0.025 | [4] 0.002 | [1] 0.018 | [5] -0.026 | [2] -0.011

PARS2 (UniProt Q7L3T8)
inactive: [3] 0.025 | [4] -0.012 | [1] 0.001 | [5] 0.017 | [2] 0.068

PARP4 (UniProt Q9UKK3)
inactive: [3] -0.132 | [4] 0.081 | [5] -0.076 | [2] 0.095

PCYT1B (UniProt Q9Y5K3)
inactive: [3] -0.006 | [4] 0.033 | [1] -0.01 | [5] -0.03 | [2] -0.073

PCID2 (UniProt Q5JVF3)
inactive: [3] 0.013 | [4] -0.021 | [1] 0.039 | [5] 0.008 | [2] 0.036
